Assay results taken from PMC6987093.

Chains of the proteins cited; added tags and fusions are not shown.
UniProt P09874, whole entry: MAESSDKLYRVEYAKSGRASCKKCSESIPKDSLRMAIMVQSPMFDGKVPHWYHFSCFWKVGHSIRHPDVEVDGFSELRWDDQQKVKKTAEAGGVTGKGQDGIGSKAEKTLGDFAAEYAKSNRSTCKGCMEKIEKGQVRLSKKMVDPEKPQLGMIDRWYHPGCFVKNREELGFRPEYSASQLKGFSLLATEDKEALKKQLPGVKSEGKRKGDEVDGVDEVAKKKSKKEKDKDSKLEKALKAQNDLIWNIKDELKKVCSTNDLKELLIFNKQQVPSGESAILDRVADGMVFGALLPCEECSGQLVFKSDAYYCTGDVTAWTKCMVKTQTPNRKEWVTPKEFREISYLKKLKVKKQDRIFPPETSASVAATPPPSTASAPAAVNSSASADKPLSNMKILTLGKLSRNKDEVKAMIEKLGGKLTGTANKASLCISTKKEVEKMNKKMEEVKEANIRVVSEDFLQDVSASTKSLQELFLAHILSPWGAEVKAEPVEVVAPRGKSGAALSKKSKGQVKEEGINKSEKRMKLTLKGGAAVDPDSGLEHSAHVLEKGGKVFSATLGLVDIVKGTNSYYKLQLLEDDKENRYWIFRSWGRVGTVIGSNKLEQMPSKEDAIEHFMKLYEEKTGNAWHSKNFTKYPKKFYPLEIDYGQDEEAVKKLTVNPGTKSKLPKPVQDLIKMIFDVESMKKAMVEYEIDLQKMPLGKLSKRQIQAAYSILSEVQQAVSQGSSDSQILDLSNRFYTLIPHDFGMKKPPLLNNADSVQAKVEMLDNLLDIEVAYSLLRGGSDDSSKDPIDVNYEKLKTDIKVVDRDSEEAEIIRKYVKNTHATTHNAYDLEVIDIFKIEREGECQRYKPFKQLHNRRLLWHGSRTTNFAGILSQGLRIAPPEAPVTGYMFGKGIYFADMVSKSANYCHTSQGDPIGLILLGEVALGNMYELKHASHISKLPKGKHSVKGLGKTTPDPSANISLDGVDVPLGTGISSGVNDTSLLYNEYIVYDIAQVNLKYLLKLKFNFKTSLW

Key:
PARP1 [1] = target: PARP1 (UniProt P09874); experiment: pull-down (FREP); conditions: EcoRI and BamHI release, much less than FoxO1-L-B and FoxO1-R-B; label: 5' biotin
PARP1 [2] = target: PARP1 (UniProt P09874); experiment: DNase I footprinting; conditions: label: FAM (EMSA probe), probe letters rebuilt from the primers and the genome, part of a longer molecule
PARP1 [3] = target: PARP1 (UniProt P09874); experiment: EMSA; conditions: 2-10 ug PARP1, 40-fold cold probe competes; EMSA: 0, 2, 5 or 10 ug PARP1 pre-incubated 30 min with 50 ng DNA probe (Thermo EMSA kit), nondenaturing PAGE; label: FAM (EMSA probe); probe letters rebuilt from the primers and the genome; part of a longer molecule

Row | Sequence | binding result (PARP1 [1]) | binding result (PARP1 [2]; 30 ug PARP1, -813 to -826 protected) | binding result (PARP1 [3]) | binding result (PARP1 [2]; 30 ug PARP1, less protection than L and R) | binding result (PARP1 [2]; 30 ug PARP1, -1805 to -1828 protected)
1 | AATGATACGGCGACCACCGAGGATCCAGGGCTGTAGATTCCGGCCTGAAGCCTGGGAATTCTCGTATGCCGTCTTCTGCTTG (double strand) [NS-biotin] | binds more weakly |  |  |  | 
2 | AGCCTGTGCCATTCGGTCTAGCCAGAGGCGCGTCACCCAGCCGGCAGCCCCCAGCCGGATTCACTGTATTCTTGACCTTTTTTAAAATGCTAGAAATGAGGAACAGGGGCTCCGGCGCGGGGAGGAGATTATCTGGCCTCCCTGAACACACGAATCCAAAGGCACCCGCGACCGCATGCCCTCCGTGGGAACCTCTTCCCCTGGGCGGGAATCTCCCGCTCCGTCCACTAAGTCCAGGGCCGGCAGCGAAGGGCTCAGGAGCGCAGTTAGAGAGAACCA (double strand) [FoxO1-L] |  | binds | binds |  | 
3 | AGGTGGGAAGATAATGGCCCTTGTGTCTCAAGCAGAAGAAACAGTTTTCCAGTTTTGTTTTGTTATGCTTTTGCTTTTTTAGGAAGAATATGGAAGGCATTTCCTTTTAGAAAGATGGGACCACTTAGGATGGAAGATGGACAGTAGGGTTTTAAATATCTTGTCCAAAAGGACAGCTTCCAACTCTTGTTTTTTAATCCCTTTCTTTCTTACAAGTAATTCTGCAATGGAAAAAGTGGCATCTAGAGAAAATTAGTCAGTTGGACAAGAGGTTGT (double strand) [FoxO1-M] |  |  | binds | binds more weakly | 
4 | TAGTCCGGGCTCCTGTTTCTTCATAATCTATTTATCACAACAGCTTCTTGCTGATACTAGGCATGGGTGGGGTGGGGAGCGTGAGCCGGATGGATTGGGGACGGGCGGGGACTGGTTCCCACCCTGGTCTTGTGGTCTCTTCACGTTTACTATCAAATTTGGACAGTCTGGGCCTCCTCTGACAGCCGCTAGGGGACCTCAGTAACTCAGATGATGAGCTCAAAGGCAGGCCCCCAAAGTACAGCTGTTGCTTCCCCCCACCTTTCCAATTACACTCTGCAGAAGCAGCCCCCGATCCAGACAGCCGCACCCTAAAA (double strand) [FoxO1-R] |  |  | binds |  | binds

Construct, isoform or probe ends are uncertain for at least one entry. For some of these results: Weaker means in comparison with the reference protein, sequence or condition of that experiment.
